Results are given in words; binding and its absence hold for the method and conditions named. For some assays here: In cells and extracts the contact can be indirect. Some results given as binding are weak or reduced against the parent protein; the word gives no strength. For some assays here: Tags and fused reporters may be left off the sequences shown.
Experiments:
GFP-STK4 (human) = biological target: T1, GFP-STK4 (human) (UniProt Q13043); assay: co-IP; HEK293T co-transfected with FLAG-HOIP and GFP-STK4 or mutants; lysate on anti-GFP antibody-agarose; blots with GFP and FLAG antibodies
T1 sequence: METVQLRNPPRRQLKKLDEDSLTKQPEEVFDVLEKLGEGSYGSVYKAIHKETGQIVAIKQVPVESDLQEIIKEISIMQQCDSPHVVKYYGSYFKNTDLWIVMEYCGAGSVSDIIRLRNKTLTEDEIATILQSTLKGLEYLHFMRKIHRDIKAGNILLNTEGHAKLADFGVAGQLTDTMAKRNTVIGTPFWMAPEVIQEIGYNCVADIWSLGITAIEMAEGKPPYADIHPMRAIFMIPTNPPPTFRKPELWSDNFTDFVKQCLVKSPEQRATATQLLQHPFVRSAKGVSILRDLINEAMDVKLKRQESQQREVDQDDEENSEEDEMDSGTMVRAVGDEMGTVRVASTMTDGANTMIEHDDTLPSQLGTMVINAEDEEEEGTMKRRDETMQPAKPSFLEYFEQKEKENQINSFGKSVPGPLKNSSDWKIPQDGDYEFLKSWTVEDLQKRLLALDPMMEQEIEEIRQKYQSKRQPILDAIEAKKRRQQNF

Amino acid sequences for entries named in this document (tags omitted). A change or cut given only in a name is not applied to a line headed by its entry.
UniProt Q96EP0: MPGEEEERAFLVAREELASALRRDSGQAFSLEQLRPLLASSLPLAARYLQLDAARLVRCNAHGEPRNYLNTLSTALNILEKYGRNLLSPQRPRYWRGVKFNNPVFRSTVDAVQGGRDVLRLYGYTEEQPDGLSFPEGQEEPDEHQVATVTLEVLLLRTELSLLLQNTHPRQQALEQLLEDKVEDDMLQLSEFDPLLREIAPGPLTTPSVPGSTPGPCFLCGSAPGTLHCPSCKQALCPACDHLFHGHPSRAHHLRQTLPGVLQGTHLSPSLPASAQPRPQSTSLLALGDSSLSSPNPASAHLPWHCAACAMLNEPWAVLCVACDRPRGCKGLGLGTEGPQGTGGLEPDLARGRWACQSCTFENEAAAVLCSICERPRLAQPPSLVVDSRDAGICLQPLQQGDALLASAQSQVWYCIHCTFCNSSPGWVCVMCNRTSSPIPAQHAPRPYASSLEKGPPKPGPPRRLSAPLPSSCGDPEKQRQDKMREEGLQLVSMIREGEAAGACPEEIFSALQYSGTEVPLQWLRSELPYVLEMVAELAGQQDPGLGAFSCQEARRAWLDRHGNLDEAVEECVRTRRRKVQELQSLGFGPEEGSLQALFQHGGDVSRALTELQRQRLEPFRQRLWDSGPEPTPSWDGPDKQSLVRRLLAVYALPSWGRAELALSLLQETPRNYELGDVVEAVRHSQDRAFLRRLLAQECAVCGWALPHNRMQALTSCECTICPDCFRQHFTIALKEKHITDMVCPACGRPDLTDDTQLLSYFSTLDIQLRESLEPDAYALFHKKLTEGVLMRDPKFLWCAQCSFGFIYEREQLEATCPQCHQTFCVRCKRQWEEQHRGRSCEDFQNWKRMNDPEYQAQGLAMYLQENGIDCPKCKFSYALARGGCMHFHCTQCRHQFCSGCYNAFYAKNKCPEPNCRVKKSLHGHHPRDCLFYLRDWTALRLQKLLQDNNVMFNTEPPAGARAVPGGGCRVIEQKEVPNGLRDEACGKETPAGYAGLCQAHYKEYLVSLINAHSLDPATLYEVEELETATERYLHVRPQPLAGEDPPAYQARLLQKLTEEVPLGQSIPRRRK

HOIP (residues 854–1072) = HOIP (residues 854–1072) (UniProt Q96EP0); assay: AUC; sedimentation velocity, 42,000 rpm, 20 °C, c(s) distribution (SEDFIT); mixtures of HOIP RING2-LDD with STK4 KD at molar ratios 1:1 or 1:5; both purified

With “FLAG-HOIP (from UniProt Q96EP0 1-1072) (enzyme)” the binding (GFP-STK4 (human)) was “binds”.

With “HOIP (residues 854–1072) (from UniProt Q96EP0 854-1072) (domain or fragment)” the binding (HOIP (residues 854–1072)) was “no binding”.

Reference: PMC12441119
